Results: article doi:10.1101/2021.02.19.431989
Where two headings read alike, the source gives them in different places. Results are given in words; binding and its absence hold for the method and conditions named. Binding seen in cells or lysates may run through a third protein. Some results given as binding are weak or reduced against the parent protein; the word gives no strength. For part of these data: Tags and fused reporters may be left off the sequences shown.

By UniProt entry, the sequences of proteins in these tests, tags left out. Where a name states a change or a piece, a line headed by the entry shows the natural chain unless it says otherwise.
UniProt Q14534, whole entry: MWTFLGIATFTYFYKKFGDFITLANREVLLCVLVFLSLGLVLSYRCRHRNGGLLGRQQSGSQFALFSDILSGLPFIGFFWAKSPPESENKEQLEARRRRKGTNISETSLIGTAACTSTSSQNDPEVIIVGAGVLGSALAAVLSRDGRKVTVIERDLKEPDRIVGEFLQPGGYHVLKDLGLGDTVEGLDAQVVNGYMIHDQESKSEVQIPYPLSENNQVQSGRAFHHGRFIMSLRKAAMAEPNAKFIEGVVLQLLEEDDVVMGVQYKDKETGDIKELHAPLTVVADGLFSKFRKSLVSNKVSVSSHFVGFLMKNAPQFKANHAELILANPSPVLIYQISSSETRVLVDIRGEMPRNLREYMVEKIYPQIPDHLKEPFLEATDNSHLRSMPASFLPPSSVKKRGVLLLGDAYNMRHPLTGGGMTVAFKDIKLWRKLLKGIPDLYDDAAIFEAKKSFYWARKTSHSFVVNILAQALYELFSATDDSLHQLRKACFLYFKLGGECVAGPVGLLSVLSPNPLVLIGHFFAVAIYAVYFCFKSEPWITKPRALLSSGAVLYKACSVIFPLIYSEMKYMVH

Assays:
Assay in all cases: co-IP
[1] = target: T1, lanosterol synthase with C-terminal Myc tag (UniProt P48449)
T1 sequence: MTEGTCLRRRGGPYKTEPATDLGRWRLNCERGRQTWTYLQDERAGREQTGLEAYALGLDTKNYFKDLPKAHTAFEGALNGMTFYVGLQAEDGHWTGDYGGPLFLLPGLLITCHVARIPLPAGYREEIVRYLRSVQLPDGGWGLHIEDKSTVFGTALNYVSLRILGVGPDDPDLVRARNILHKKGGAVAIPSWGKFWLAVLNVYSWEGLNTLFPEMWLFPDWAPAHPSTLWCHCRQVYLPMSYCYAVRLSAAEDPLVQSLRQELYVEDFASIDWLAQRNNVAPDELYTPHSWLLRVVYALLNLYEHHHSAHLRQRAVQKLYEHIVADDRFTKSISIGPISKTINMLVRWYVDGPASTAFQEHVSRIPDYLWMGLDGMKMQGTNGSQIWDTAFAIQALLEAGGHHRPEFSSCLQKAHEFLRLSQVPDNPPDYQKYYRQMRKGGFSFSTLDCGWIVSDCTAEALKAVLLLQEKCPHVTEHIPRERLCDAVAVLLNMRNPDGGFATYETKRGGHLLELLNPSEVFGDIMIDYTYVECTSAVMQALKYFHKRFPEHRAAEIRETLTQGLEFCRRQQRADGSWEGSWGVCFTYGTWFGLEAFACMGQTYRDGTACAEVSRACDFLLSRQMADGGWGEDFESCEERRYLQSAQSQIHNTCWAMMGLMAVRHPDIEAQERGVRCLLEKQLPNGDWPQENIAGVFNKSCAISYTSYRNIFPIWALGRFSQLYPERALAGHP

[2] = target: T2, viperin (virus inhibitory protein, endoplasmic reticulum-associated, interferon-inducible) with N-terminal 3x-FLAG tag (human) (UniProt Q8WXG1)
T2 sequence: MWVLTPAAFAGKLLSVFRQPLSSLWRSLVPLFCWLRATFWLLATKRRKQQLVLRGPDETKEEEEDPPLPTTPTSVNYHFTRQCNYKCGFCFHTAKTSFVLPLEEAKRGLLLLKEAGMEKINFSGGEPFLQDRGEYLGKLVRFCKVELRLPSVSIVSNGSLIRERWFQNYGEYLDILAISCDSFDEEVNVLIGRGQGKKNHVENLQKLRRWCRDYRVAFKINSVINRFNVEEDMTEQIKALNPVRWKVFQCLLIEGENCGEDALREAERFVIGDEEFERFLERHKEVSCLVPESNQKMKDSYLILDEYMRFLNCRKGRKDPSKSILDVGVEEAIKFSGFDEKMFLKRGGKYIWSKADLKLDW

[3] = target: T3, viperin-ΔN50 (truncated viperin lacking the N-terminal 50 residues) (human) (UniProt Q8WXG1)
T3 sequence: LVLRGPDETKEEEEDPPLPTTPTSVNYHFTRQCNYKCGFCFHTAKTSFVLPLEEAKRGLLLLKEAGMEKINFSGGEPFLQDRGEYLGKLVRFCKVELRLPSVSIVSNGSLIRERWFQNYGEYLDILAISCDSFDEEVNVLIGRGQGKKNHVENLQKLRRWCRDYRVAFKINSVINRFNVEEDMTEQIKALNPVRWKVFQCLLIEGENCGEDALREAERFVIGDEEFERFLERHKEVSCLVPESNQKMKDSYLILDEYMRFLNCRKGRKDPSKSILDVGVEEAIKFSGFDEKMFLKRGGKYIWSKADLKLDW

[4] = target: T2, viperin (virus inhibitory protein, endoplasmic reticulum-associated, interferon-inducible) with N-terminal 3x-FLAG tag (human); remark: listed apart in the source
[5] = target: T3, viperin-ΔN50 (truncated viperin lacking the N-terminal 50 residues) (human); remark: listed apart in the source
[6] = target: T1, lanosterol synthase with C-terminal Myc tag; remark: listed apart in the source

squalene monooxygenase with C-terminal V5 tag (from UniProt Q14534 1-574) (enzyme)
binding [1]: binds
binding [2]: binds
binding [3]: binds

B1: lanosterol synthase with C-terminal Myc tag (enzyme, UniProt P48449 1-732)
chain: T1 sequence
binding [4]: binds
binding [5]: binds

B2: viperin (virus inhibitory protein, endoplasmic reticulum-associated, interferon-inducible) with N-terminal 3x-FLAG tag (enzyme, UniProt Q8WXG1 1-361)
chain: T2 sequence
binding [6]: binds
